Source: article PMC12040169 (PLOS Biology, 2025)
Read-outs that look alike come from different tables or passages of the source. Some of the results follow.

Test system: T1, CTL2-GFP (C. trachomatis L2/434/Bu, GFP-expressing)
T1 construct: L2/434/Bu, GFP-expressing
Set-up: species or system HeLa; Intracellular C. trachomatis growth in HeLa cells, bulk GFP fluorescence relative to DMSO
Conditions: bulk GFP, single well, 28.5 h, 10 µM, inhibitor

Compound	% of control remaining [%]	% of control remaining (Bulk GFP fluorescence) [%]
Cc1nn(CC(=O)N2C(C)CCCC2C)c(=O)c2cc3occc3n12 (stereo not shown) [CBK283555]	109.299	–
O=C1CC[C@@H](NCc2ccccn2)[C@H](c2cc(F)cc(F)c2)N1 [CBK282911]	78.5935	–
O=C(NC1CCCCC1)O[C@@H]1CO[C@H]2[C@@H]1OC[C@@H]2NS(=O)(=O)Cc1ccccc1 [CBK289467]	119.941	–
COc1cccc(NC(=O)c2ccncc2Cl)c1 [CBK174695]	111.23	–
O=C(O)C(Cc1ccccc1)Nc1ncnc2c1oc1ccccc12 (stereo not shown) [CBK266719]	120.412	–
O=C(c1cc(S(=O)(=O)NCc2ccco2)c(Cl)cc1Cl)N1CCC1 [CBK305004]	113.175	–
CC(SCc1ccccc1)C(=O)NCC1CCN(c2ccccc2)C1 (stereo not shown) [CBK298329]	137.816	–
O=C(COc1ccccc1)Nc1ccc(N2CCOCC2)c2nonc12 [CBK268149]	93.1146	–
C=CCn1c(CCCNC=O)nc2ccccc21 [CBK269375]	158.162	–
CC(O)c1cc2c(cc1NC(=O)c1cnn3c1NC(c1ccco1)CC3C(F)(F)F)OCO2 (stereo not shown) [CBK268850]	153.108	–
COc1ccc(OC)c(-n2cnc3c2NC(=O)CC3c2ccccc2Cl)c1 (stereo not shown) [CBK287983]	121.815	–
CC(C)NC(=O)c1cc(C2CCN(C(=O)CCOc3ccccc3F)C2)nc2ccccc12 (stereo not shown) [CBK285917]	91.7158	–
CN1CCN(C)C(COc2cc(C(F)(F)F)ccn2)C1 (stereo not shown) [CBK113460]	102.125	–
CN1C(=O)c2ccccc2C(=O)[C@@]2(C)CN(C(=O)c3ccccc3)C[C@@H]12 [CBK281685]	134.294	–
Cc1c(C(=O)O)sc2nc(SCC(=O)NCc3ccccc3)[nH]c(=O)c12 [CBK287609]	–	109.85
CCNC(=S)N1CCN(CCNC=C2C(=O)CC(c3ccco3)CC2=O)CC1 (stereo not shown) [CBK264742]	119.529	–
Cc1nnc(SCC(=O)Nc2nsc(-c3ccc(Cl)cc3)n2)s1 [CBK266525]	120.893	–
COc1ccc([C@@]23CC[C@@H](NC(=O)Cc4ccc(Cl)cc4)CC2N(C)CC3)cc1OC (stereo partly shown) [CBK074971T]	114.583	–
COc1cccc(OC)c1-c1cn2ccnc2c(N(C)CCN(C)C)n1 [CBK066398]	188.984	–
Cn1c(N2CCCC(C(=O)NCC3CC3)C2)nc2ccccc21 (stereo not shown) [CBK283987]	121.192	–
CCN(CC)C(=O)CN1C(=O)N2CCCN=C2c2ccc(Cl)cc21 [CBK284386]	100.928	–
O=c1[nH]c2ncc(-c3cccnc3)nc2n1Cc1ccc(Cl)cc1 [CBK064561]	120.679	–
Cc1cc(C)nc(Nc2ccc(C3CCCN(C(=O)c4c(C)oc5c4CCCC5)C3)nc2)n1 (stereo not shown) [CBK285988]	117.829	–
CC(=O)Nc1nnc(SCC(=O)N2CCN(c3ccc(Cl)cc3)CC2)s1 [CBK307384]	142.117	–
CCN1CCCN(c2cc(OCc3ccc(Cl)c(Cl)c3)ncn2)CC1 [CBK083786]	131.79	–

2 entries picked at random from the list so far:
Compound	% of control remaining [%]	% of control remaining (Bulk GFP fluorescence) [%]
C=CCn1c(CCCNC=O)nc2ccccc21 [CBK269375]	158.162	–
CC(=O)Nc1nnc(SCC(=O)N2CCN(c3ccc(Cl)cc3)CC2)s1 [CBK307384]	142.117	–

The listing continues.

Compound	% of control remaining [%]	% of control remaining (Bulk GFP fluorescence) [%]
C=Cn1cc(CN2CCC(O)(c3ccccc3C)CC2)c(C)n1 [CBK282580]	125.13	–
FC(F)(F)Oc1ccc(-c2cc(NCCc3ccccn3)ncn2)cc1 [CBK037732]	128.816	–
CCc1csc(CCNc2ccc(-c3nc(C4CC4)no3)cn2)n1 [CBK306608]	87.5839	–
Cc1nc2c(s1)C[C@@H]1[C@](C)(CO)[C@H](O)CC[C@@]1(C)[C@@H]2CC(=O)O [CBK289571]	120.839	–
N#C/C(=C\C=C\c1ccc([N+](=O)[O-])cc1)c1nc(-c2cc3cc([N+](=O)[O-])ccc3oc2=O)cs1 [CBK262357]	127.784	–
Cc1ncc(C(O)c2ccc(Cl)cc2)c2c1OC(C)(C)OC2 (stereo not shown) [CBK010749]	108.972	–
O=C(O)c1ccc(Cl)c(S(=O)(=O)Nc2ccc(I)cc2)c1 [CBK296132]	138.96	–
COc1ccc([N+](=O)[O-])cc1NC(=O)c1cc(-c2cccnc2)nc2ccc(C)cc12 [CBK267757]	126.98	–
O=C(O)CCN1CCC2(CCN(C(=O)c3cc(F)c(F)cc3F)C2)C1 (stereo not shown) [CBK137123]	91.664	–
CC(=O)c1ccc(-c2nccnc2N[C@@H]2CCN(Cc3ccccc3)C2)s1 [CBK036981]	100.533	–
CC1OCCC12CN(c1cc(CO)c(F)cn1)CCO2 (stereo not shown) [CBK304775]	119.341	–
O=C(NCCn1nc(-c2cccs2)oc1=O)C1CCCCC1 [CBK282343]	99.1846	–
Oc1cc2cccnc2nc1-c1ccc2c(c1)CCO2 [CBK073698]	105.337	–
CC(=O)N1CC[C@H]2NC(=O)CNC(=O)C3(CCCC[C@H]2C1)CCNCC3 [CBK292142]	122.633	–
O=C(c1ccc[nH]1)N1Cc2ccccc2C1 [CBK200319]	196.134	–
O=C(NCc1cccs1)C1(Cc2ccccc2-c2ccc(F)c(F)c2)CCOCC1 [CBK286417]	116.852	–
Cc1cccc(NC(=O)NCCCn2c(-c3ccncc3)nc3cccnc32)c1 [CBK288580]	129.061	–
COc1ccc(N2C(=O)c3ccc(C(=O)Nc4ccccc4C(=O)O)cc3C2=O)cc1O [CBK262833]	124.236	–
O=c1c2c3nc4ccccc4nc3n(CCc3ccccc3)c2ncn1Cc1ccco1 [CBK269502]	97.8142	–
c1cnc2[nH]c(C3CCOCC3)c(CN3CCSCC3)c2c1 [CBK284688]	129.134	–
Cc1c(C)n(Cc2ccccc2)c2ccc(C(=O)OCCCN(C)C)cc12 [CBK087693]	93.0699	–
Cc1ccc(O)c(CN[C@@H]2CCC[C@H]2Cc2cc(C)no2)c1 [CBK284936]	126.79	–
Cc1ccc2[nH]c(=O)c(CNc3ccc(-c4nc5cc(C)ccc5[nH]4)cc3)cc2c1 [CBK286161]	108.364	–
O=C(NCc1ccc(-c2csnn2)cc1)c1ccco1 [CBK149289]	101.663	–
